{"source": "PubChem BioAssay AID540276", "about": "(National Center for Advancing Translational Sciences (NCATS), 2011)", "note": "In all, about 300,000 compounds went through this assay and about 5,400 (1.8%) were called active. Inconclusive results, whose numbers are uncertain, are shown with a selection of clear calls. Calls follow the shape of the full dose curve; tested in HEK293 cells. A potency beside an inconclusive call is a rough fit, not a confirmed value. Potency is read from the fitted curve at half-maximal effect."}
{"test": "qHTS for inhibitors of binding or entry into cells for Marburg Virus", "conditions": "Marburg virus pseudotyped entry inhibition, cell reporter; series mostly up to 37.8 µM"}
{"smiles": "CCNC(=S)N=Nc1c(O)n(Cc2ccc(Cl)cc2)c2ccccc12", "Potency": "inconclusive: 20 µM [inhibitor, single point]"}
{"smiles": "Cc1ccc(C(=O)N2CCN(S(=O)(=O)c3ccccc3)CC2)s1", "Potency": "inconclusive: 0.631 µM [inhibitor, single point]"}
{"smiles": "COc1ccc(C(CNc2nc(-c3cccnc3)nc3ccccc23)N(C)C)cc1", "note": "(stereo not drawn)", "Potency": "inconclusive: 25.1 µM [inhibitor, single point]"}
{"smiles": "COc1ccc(C(=O)/C=C/c2cn(CC(O)CN3CCCCCC3)c3ccccc23)cc1OC", "note": "(stereo not drawn)", "Potency": "inconclusive: 11.2 µM [inhibitor, partial curve, poor fit]"}
{"smiles": "O=C(Nc1ccc2c(c1)CCC2)C1CCCN(c2ncccn2)C1", "note": "(stereo not drawn)", "Potency": "inconclusive: 2.31 µM [activator, partial curve, poor fit]"}
{"smiles": "O=C(Nc1ccc2c(c1)OCCO2)c1ccc(Cl)c([N+](=O)[O-])c1", "Potency": "inconclusive: 11.6 µM [inhibitor, partial curve]"}
{"smiles": "COCCCNC(=O)c1c(NC(=O)Cc2coc3cc(C)ccc23)sc2c1CCCC2", "Potency": "inconclusive: 10 µM [inhibitor, partial curve, poor fit]"}
{"smiles": "CCc1sc(C(=O)NCCCN2CCCC2=O)cc1Br", "Potency": "inactive"}
{"smiles": "O=C(NCc1ccccn1)c1ccc(Cl)c(S(=O)(=O)N2CCCCCC2)c1", "Potency": "inconclusive: 10 µM [inhibitor, partial curve, poor fit]"}
{"smiles": "C=C1CN2C(=NC(c3ccccc3)C(C(=O)OC)=C2C)O1", "note": "(stereo not drawn)", "Potency": "inactive"}
{"smiles": "CC1(C)Cc2c(cnn2-c2ccccc2)-c2c1c1ccccc1n2CC(O)CCl", "note": "(stereo not drawn)", "Potency": "inconclusive: 29.1 µM [inhibitor, single point]"}
{"smiles": "CCn1c(COc2ccc(=O)n(-c3ccccc3)n2)nnc1SCc1ccccc1C", "Potency": "inactive"}
{"smiles": "CCc1ccc(C(=O)NCc2ccc(Cl)cc2Cl)cc1", "Potency": "inconclusive: 0.082 µM [activator, partial curve, poor fit]"}
{"smiles": "COC(=O)[C@](O)(c1c[nH]c2ccccc12)C(F)(F)F", "Potency": "inactive"}
{"smiles": "CSc1ccccc1C(=O)N(C)Cc1ccccc1", "Potency": "inactive"}
{"smiles": "Cc1nnc(N2C(=O)c3oc4ccccc4c(=O)c3C2c2cccc(OCCC(C)C)c2)s1", "note": "(stereo not drawn)", "Potency": "inconclusive: 0.708 µM [activator, full curve, poor fit]"}
{"smiles": "CN(C)c1nc(Oc2ccc(=O)[nH]n2)nc(N2CCOCC2)n1", "Potency": "inconclusive: 1.26 µM [activator, single point]"}
{"smiles": "CC(C)(C)c1ccc(C(=O)NCCC(=O)N2CCCC2)cc1", "Potency": "inconclusive: 6.31 µM [activator, single point]"}
{"smiles": "O=C(CSc1nnc(-c2ccccc2Cl)n1Cc1ccco1)Nc1ccc2c(c1)OCCO2", "Potency": "inconclusive: 35.5 µM [inhibitor, single point]"}
{"smiles": "COc1cccc(N/N=C/c2cccc(Br)c2O)c1", "Potency": "active: 11.2 µM"}
{"smiles": "COc1ccc(C(=O)/C=C/Sc2nc3ccccc3o2)cc1", "Potency": "inconclusive: 11.2 µM [inhibitor, partial curve, poor fit]"}
{"smiles": "O=C(CCn1c(=O)oc2cc(Cl)ccc21)Nc1ccc(O)cc1", "Potency": "inactive"}
{"smiles": "N#Cc1cccc(NC(=O)COC(=O)C2CCC2)c1", "Potency": "inactive"}
{"smiles": "Cc1onc(-c2ccccc2)c1C(=O)Nc1ccc(Cl)cn1", "Potency": "inconclusive: 2.82 µM [inhibitor, full curve]"}
{"smiles": "COc1ccc(/C=N/N=C2/NC(=O)C(CC(=O)O)S2)cc1OCc1ccc(Cl)cc1Cl", "note": "(stereo not drawn)", "Potency": "active: 1.12 µM"}
{"smiles": "O=C(NCCCc1ccccc1)c1cccs1", "Potency": "inconclusive: 8.2 µM [activator, partial curve]"}
{"smiles": "CN(C(=O)C1CCN(S(=O)(=O)c2ccccc2[N+](=O)[O-])CC1)C1CCCCC1", "Potency": "inconclusive: 3.55 µM [activator, single point]"}
{"smiles": "COC(=O)CC1(c2cccc3ccccc23)C(=O)c2ccccc2C1=O", "Potency": "inconclusive: 35.5 µM [inhibitor, single point]"}
{"smiles": "NS(=O)(=O)c1ccc(N=Cc2c(O)n(-c3nccs3)c(=O)c3ccccc23)cc1", "Potency": "inactive"}
{"smiles": "O=C(O)c1cccc(NC(=O)c2ccc(S(=O)(=O)c3ccccc3)cc2)c1", "Potency": "inconclusive: 4.47 µM [inhibitor, full curve]"}
{"smiles": "N#Cc1ccccc1S(=O)(=O)c1ccccc1C(=O)Nc1ccccc1", "Potency": "inactive"}
{"smiles": "Cc1nc(N2CCN(C(=O)c3ccco3)CC2)c(C#N)c2c1CCCC2", "Potency": "inactive"}
{"smiles": "Cc1ccc(CCNC(=O)C2CCCN(S(=O)(=O)c3cccs3)C2)cc1", "note": "(stereo not drawn)", "Potency": "inconclusive: 29.1 µM [inhibitor, single point]"}
{"smiles": "COc1ccc(CC(=O)N/N=C(/C)CC(=O)N(C)c2ccccc2)cc1", "Potency": "inactive"}
{"smiles": "Nc1ncnc(N2CCOCC2)c1N", "Potency": "inactive"}
{"smiles": "Cc1ccc2c(c1)-c1c(ssc1=S)C(C)(C)N2C(=O)CSC1=NCCS1", "Potency": "inconclusive: 20.6 µM [inhibitor, partial curve, poor fit]"}
{"smiles": "O=C(COc1ccc2oc3c(c2c1)CCCC3)Nc1cccc(Br)c1", "Potency": "inactive"}
{"smiles": "Cc1ccc2[nH]c(=O)c(CN(CC3CCCO3)C(=S)Nc3ccccc3)cc2c1", "note": "(stereo not drawn)", "Potency": "inconclusive: 10 µM [inhibitor, partial curve, poor fit]"}
{"smiles": "CCOC(=O)/C(=N\\Nc1ccccc1Cl)N1CC(C)OC(C)C1", "note": "(stereo not drawn)", "Potency": "inconclusive: 7.94 µM [inhibitor, partial curve, poor fit]"}
{"smiles": "COc1ccc2c(C=O)cn(C)c2c1", "Potency": "inconclusive: 5.62 µM [inhibitor, full curve, poor fit]"}
{"smiles": "CC(=O)N1c2ccc(S(=O)(=O)NCC3CCC(C(=O)Nc4cccc(C)n4)CC3)cc2CC1C", "note": "(stereo not drawn)", "Potency": "inconclusive: 7.08 µM [inhibitor, full curve, poor fit]"}
{"smiles": "C/C(=N\\OCC(=O)Nc1cc(C)cc(C)c1)c1ccc2c(c1)OCCO2", "Potency": "inconclusive: 5.62 µM [activator, single point]"}
{"smiles": "O=C(Nc1ccncc1)c1cccc(S(=O)(=O)N2CCCC2)c1", "Potency": "inconclusive: 0.251 µM [inhibitor, full curve, poor fit]"}
{"smiles": "O=C(COc1ccccc1)NCC(c1ccco1)N1CCN(c2ccccc2F)CC1", "note": "(stereo not drawn)", "Potency": "inconclusive: 35.5 µM [inhibitor, single point]"}
{"smiles": "CCCCn1c(C)cc2c(c1=O)[C@H]1O[C@](c3ccsc3)(Cc3ccccc31)O2", "Potency": "inconclusive: 0.944 µM [inhibitor, full curve, poor fit]"}
{"smiles": "O=C(COc1ccc2oc3c(c2c1)CCCC3)Nc1ccccn1", "Potency": "inconclusive: 22.4 µM [inhibitor, single point]"}
{"smiles": "CC(CSc1nc2ccccc2s1)Cn1c(N2CCCC2)nc2c1c(=O)[nH]c(=O)n2C", "note": "(stereo not drawn)", "Potency": "active: 8.91 µM"}
{"smiles": "CS(=O)(=O)c1ccc(C(=O)OCC(=O)N2CCCc3ccccc32)cc1", "Potency": "inactive"}
{"smiles": "CCC(C)c1ccc(OCC(=O)Nc2ccc3c(c2)C(=O)NC3=O)cc1", "note": "(stereo not drawn)", "Potency": "inconclusive: 1.12 µM [inhibitor, single point]"}
{"smiles": "COc1ccc(OC)c(S(=O)(=O)Nc2ccccc2SC)c1", "Potency": "inactive"}
{"smiles": "O=c1c2c3c(sc2nc2n1CCCCC2)CCCCC3", "Potency": "inactive"}
{"smiles": "COc1ccc(C(=S)N2CCCC2)cc1OC", "Potency": "inconclusive: 0.355 µM [activator, full curve, poor fit]"}
{"smiles": "Cc1nc2c(ccc3c2ccc2nc(C)sc23)s1", "Potency": "inconclusive: 3.98 µM [activator, partial curve, poor fit]"}
{"smiles": "CN(C)c1ccc(/C=C/C(=O)c2ccc3c(c2)OCCO3)cc1[N+](=O)[O-]", "Potency": "inconclusive: 0.562 µM [activator, full curve, poor fit]"}
{"smiles": "O=C(Nc1cccc([N+](=O)[O-])c1)Nc1cccc([N+](=O)[O-])c1", "Potency": "inconclusive: 3.98 µM [inhibitor, partial curve, poor fit]"}
{"smiles": "C=CCN(c1ccccc1)S(=O)(=O)c1cccc(C(=O)Nc2ccc(N3CCOCC3)cc2)c1", "Potency": "inconclusive: 14.1 µM [inhibitor, single point]"}
{"smiles": "O=C(Nc1ccc(F)cc1F)c1ccc(-n2cccn2)nc1", "Potency": "inconclusive: 0.355 µM [inhibitor, partial curve, poor fit]"}
{"smiles": "NS(=O)(=O)c1ccc(CCn2c(=S)[nH]c3ccccc3c2=O)cc1", "Potency": "inconclusive: 11.2 µM [inhibitor, partial curve, poor fit]"}
{"smiles": "Cc1ccc(/C=C/C(=O)O)cc1S(=O)(=O)NCc1cccnc1", "Potency": "inconclusive: 5.62 µM [activator, single point]"}
{"smiles": "Cc1ccc2c(c1)c(N=O)c(O)n2Cc1ccc(Cl)cc1", "Potency": "inactive"}
{"smiles": "COc1cc(C(=O)Nc2nc(OC)c(-c3ccccc3)c(OC)n2)cc(OC)c1OC", "Potency": "inconclusive: 2.59 µM [inhibitor, full curve]"}
{"smiles": "CC1CCCCC1NC(=O)CNC(=O)c1ccco1", "note": "(stereo not drawn)", "Potency": "inconclusive: 1.12 µM [inhibitor, single point]"}
{"smiles": "Cc1cc(C(F)F)n2ncc(C(=O)NCCc3ccccc3Cl)c2n1", "Potency": "inconclusive: 20 µM [inhibitor, single point]"}
{"smiles": "Cn1ccc2c(-c3ccccc3F)cc3c(c21)C1CCC3C1", "note": "(stereo not drawn)", "Potency": "inconclusive: 4.99 µM [inhibitor, partial curve, poor fit]"}
{"smiles": "COc1cc(/C=N/N=C(N)N)ccc1OCc1ccc(Cl)cc1", "Potency": "active: 18.3 µM"}
{"smiles": "COc1ccc(OC)c(Nc2c3ccccc3nc3ccccc23)c1", "Potency": "active: 6.31 µM"}
{"smiles": "O=C(c1ccc(S(=O)(=O)Cc2ccccc2F)c([N+](=O)[O-])c1)N1CCCCCC1", "Potency": "inconclusive: 14.1 µM [inhibitor, single point]"}
{"smiles": "Cc1cc(C)c2c(c1)NC(c1cc3c(cc1Br)OCO3)C1CC=CC21", "note": "(stereo not drawn)", "Potency": "inconclusive: 15.8 µM [inhibitor, partial curve, poor fit]"}
